# Results published in US20040010378.
# By UniProt entry, the sequences of proteins in these tests, tags left out. Where a name states a change or a piece, a line headed by the entry shows the natural chain unless it says otherwise.
# UniProt P05549: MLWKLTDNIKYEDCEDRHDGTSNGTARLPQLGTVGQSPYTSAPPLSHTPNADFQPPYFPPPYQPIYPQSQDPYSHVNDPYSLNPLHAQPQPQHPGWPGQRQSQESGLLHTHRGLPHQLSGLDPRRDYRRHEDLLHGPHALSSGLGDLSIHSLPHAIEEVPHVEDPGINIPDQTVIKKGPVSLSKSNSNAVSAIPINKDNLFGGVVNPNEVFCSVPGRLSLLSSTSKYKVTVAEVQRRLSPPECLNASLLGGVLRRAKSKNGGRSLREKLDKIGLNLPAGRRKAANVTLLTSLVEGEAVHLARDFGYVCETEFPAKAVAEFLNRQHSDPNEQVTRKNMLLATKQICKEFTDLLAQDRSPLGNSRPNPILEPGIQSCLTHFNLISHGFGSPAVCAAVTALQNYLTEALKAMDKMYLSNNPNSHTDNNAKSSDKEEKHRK
# For at least one entry, the source does not settle the construct or the ends of the probe.
# Target: AP2 (AP-2 transcription factor) (UniProt P05549)
# Test: SPR
# Conditions: 5' thiol on the immobilized strand, attached via SSMCC to MUAM gold surface; SPR imaging; binding buffer diluted 1:10 in 20 mM phosphate, 250 mM NaCl, pH 7.78; higher signal than PEG background regions; purified recombinant protein
sequence,measurement,value
TTTTTTTTTTTTTTTGATCGAACTGACCGCCCGCGGCCCGT / ACGGGCCGCGGGCGGTCAGTTCGATC [AP2 consensus duplex (immobilized oligo + complement)],binding result,binds
